Data on 26 compounds can be found in PubChem BioAssay AID330 (DTP/NCI, 2004).

The structures appear in SMILES notation. The list is a part of this screen's results and no random one: it is rich in T/C values a quarter to a half above the control, in often repeated tests (any T/C) and in doses without a T/C. Further doses and runs are listed elsewhere. T/C is the treated group as % of the vehicle group. Some doses have a count of surviving animals in place of a T/C: the source holds a T/C of zero for them, seemingly a mark for toxic or unscored doses. Some survivor counts are full or nearly so, which does not show that the dose was tolerated: the source hardly ever lists a survival T/C far under the control, and the zero likely stands for such cases as well. Counts of survivors are from the toxicity check (mostly the fifth day) where no day follows; animals may have died later. Schedules are NCI's codes, read here as Q, the interval in days (D) or hours (H), X, the number of doses. Some doses were run more than once; the values are given in rising order. Where survival is the endpoint, the PubChem record calls one and a half times the control and up active, and a quarter to a half above the control has no call in these data; cut-offs in other NCI protocols can differ. Some T/C values carry the count of animals alive at the toxicity check (mostly the fifth day); without a count, all were alive then.

The test system of the assay is P388 leukemia ip, CD2F1 mice, survival T/C. The assay is described as follows: NCI In Vivo Anticancer Drug Screen. Data for tumor model P388 Leukemia (intraperitoneal) in CD2F1 (CDF1) mice. The following applies: T/C endpoint: median survival time, higher T/C = longer survival.
Setting [1] is: dose: 25.0 mg/kg/injection, schedule: Q01DX009 (ip), vehicle: saline with Tween-80.
[2] abbreviates: dose: 100.0 mg/kg/injection, schedule: Q01DX009 (ip), vehicle: saline with Tween-80.
The mark [3] stands for this setting: dose: 400.0 mg/kg/injection, schedule: Q04DX003 (ip), vehicle: saline.
Where [4] appears, read: dose: 100.0 mg/kg/injection, schedule: Q04DX003 (ip), vehicle: saline with Tween-80.
[5] abbreviates: dose: 200.0 mg/kg/injection, schedule: Q04DX003 (ip), vehicle: saline with Tween-80.
Where [6] appears, read: dose: 200.0 mg/kg/injection, schedule: Q01DX001 (ip), vehicle: saline with Tween-80.
[7] abbreviates: dose: 20.0 mg/kg/injection, schedule: Q01DX005 (ip), vehicle: Klucel (hydroxypropylcellulose) (HPC).
[8] abbreviates: dose: 200.0 mg/kg/injection, schedule: Q01DX009 (ip), vehicle: saline.
Where [9] appears, read: dose: 200.0 mg/kg/injection, schedule: Q01DX009 (ip), vehicle: saline with Tween-80.
Setting [10] is: dose: 400.0 mg/kg/injection, schedule: Q01DX009 (ip), vehicle: saline with Tween-80.
Where [11] appears, read: dose: 12.5 mg/kg/injection, schedule: Q01DX001 (ip), vehicle: saline with Tween-80.

For the compound `O=[N+]([O-])c1cc(S(=O)(=O)NCc2ccco2)ccc1N/N=C/c1ccccn1`, the survivor count is, setting by setting: (dose: 6.25 mg/kg/injection, schedule: Q01DX009 (ip), vehicle: saline with Tween-80) 6 of 6; (dose: 12.5 mg/kg/injection, schedule: Q01DX009 (ip), vehicle: saline with Tween-80) 6 of 6; under setting [1], 6 of 6; (dose: 50.0 mg/kg/injection, schedule: Q01DX009 (ip), vehicle: saline with Tween-80) 5 of 6; under setting [2], 6 of 6.

As for `C1CNCOC1`, the survivor count under setting [3] was 3 of 6.

`CC(CN(C)C)C(=O)/C=C/c1ccc(Cl)c(Cl)c1` (stereo not drawn): the survivor count was 0 of 6 (dose: 120.0 mg/kg/injection, schedule: Q01DX005 (ip), vehicle: saline with Tween-80) and 0 of 6 (dose: 240.0 mg/kg/injection, schedule: Q01DX005 (ip), vehicle: saline with Tween-80).

For the compound `Cc1nc(C(Cl)(Cl)Cl)[nH]c(=O)c1SCCO`, the T/C (dose: 200.0 mg/kg/injection, schedule: Q01DX005 (ip), vehicle: distilled water + alcohol) is 133 % of control and the T/C (dose: 400.0 mg/kg/injection, schedule: Q01DX005 (ip), vehicle: distilled water + alcohol) was 135 % of control [4 of 5 alive].

Turning to `[I][Hg][CH2]C1COCC([CH2][Hg][I])O1.[I][Hg][CH2]C1COCC([CH2][Hg][I])O1` (stereo not drawn), the survivor count was 1 of 6 (dose: 50.0 mg/kg/injection, schedule: Q04DX003 (ip), vehicle: saline with Tween-80); 0 of 6 under setting [4]; 0 of 6 under setting [5].

For the compound `CCCCCCCCCCCCCCCCCC[N+]1(CC)CCSCC1`, the survivor count under setting [6] was 5 of 6.

Turning to `Cc1nn(C(=O)c2ccncc2)c(C)c1N=Nc1cccc([N+](=O)[O-])c1`, the survivor count under setting [3] is recorded as 0 of 6.

With `C[Si](C)(C)C1c2ccccc2-c2[nH]c3ccccc3c21` (stereo not drawn), the survivor count runs as follows: (dose: 50.0 mg/kg/injection, schedule: Q01DX009 (ip), vehicle: Klucel (hydroxypropylcellulose) (HPC)) 6 of 6; (dose: 100.0 mg/kg/injection, schedule: Q01DX009 (ip), vehicle: Klucel (hydroxypropylcellulose) (HPC)) 1 of 6; (dose: 200.0 mg/kg/injection, schedule: Q01DX009 (ip), vehicle: Klucel (hydroxypropylcellulose) (HPC)) 0 of 6.

Consider `CSc1ncnc2c1ncn2C1OC(CO)C(O)OC1O` (stereo not drawn), for which the T/C is, setting by setting: under setting [1], 127 % of control; (dose: 37.5 mg/kg/injection, schedule: Q01DX009 (ip), vehicle: saline with Tween-80) 136 % of control [5 of 6 alive]; under setting [4], 127 % of control. In addition, the survivor count by setting is: (dose: 150.0 mg/kg/injection, schedule: Q04DX003 (ip), vehicle: saline with Tween-80) 6 of 6; under setting [5], 4 of 6.

Consider `N#CC(/C=C/c1ccccc1)Nc1ccccc1N` (stereo not drawn), for which, under setting [6], the T/C was 131 % of control.

Consider `C=C1C(=O)C23OC2C1CCC(=O)C1(C)CC[C@H](OC(C)=O)C(C)(C)[C@H]1CC3=O` (stereo partly drawn), for which the survivor count under setting [7] is 0 of 6.

Take `COC(=O)c1cc(NC(=O)O/N=C/c2cccnc2)cc(C(=O)OC)c1`: the survivor count under setting [8] is reported as 6 of 6.

On to `CCCCCCCCOC(=O)CP(=O)(O)O`, for which the survivor count under setting [9] was 6 of 6.

`C/C=C(\C)C(=O)O[C@@H]1[C@H]2C(C)=CC(=O)[C@@H](O)[C@]2(C)[C@H]2[C@@]3(O)OC[C@@]24[C@@H]1OC(=O)C[C@H]4[C@@H](C)[C@H]3O`: the T/C was 134 % of control (dose: 0.08 mg/kg/injection, schedule: Q01DX009 (ip), vehicle: other); 134 % of control (dose: 0.15 mg/kg/injection, schedule: Q01DX009 (ip), vehicle: other); 142 % of control (dose: 0.3 mg/kg/injection, schedule: Q01DX009 (ip), vehicle: other); 130 % of control (dose: 0.5 mg/kg/injection, schedule: Q01DX009 (ip), vehicle: other); 130 % of control (dose: 1.0 mg/kg/injection, schedule: Q01DX009 (ip), vehicle: other); 137 % of control (dose: 1.2 mg/kg/injection, schedule: Q01DX009 (ip), vehicle: other).

In the case of `O=C(O)C(O)C(O)C(=O)O.[Bi].[Na+]` (stereo not drawn), the survivor count under setting [8] is 0 of 6.

As for `C=C(C)C1C2CC3(C)C4(CO4)C4OC4C3(O)C1C(=O)O2` (stereo not drawn), the survivor count reads like this: (dose: 2.5 mg/kg/injection, schedule: Q01DX005 (ip), vehicle: Klucel (hydroxypropylcellulose) (HPC)) 1 of 6; (dose: 5.0 mg/kg/injection, schedule: Q01DX005 (ip), vehicle: Klucel (hydroxypropylcellulose) (HPC)) 0 of 6; (dose: 10.0 mg/kg/injection, schedule: Q01DX005 (ip), vehicle: Klucel (hydroxypropylcellulose) (HPC)) 0 of 6; under setting [7], 0 of 6; (dose: 40.0 mg/kg/injection, schedule: Q01DX005 (ip), vehicle: Klucel (hydroxypropylcellulose) (HPC)) 0 of 6.

Turning to `C=C(C)C(=O)Nc1ccc(NC(C)C)cc1`, the survivor count under setting [2] was 2 of 6 and 3 of 6; the survivor count under setting [9] is listed as 1 of 6.

On to `Cc1ccccc1C(=O)Nc1ccccc1-c1ccccc1N`, for which the survivor count (dose: 200.0 mg/kg/injection, schedule: Q04DX003 (ip), vehicle: saline) is 6 of 6 and the survivor count under setting [3] is listed as 6 of 6.

For `O=[N+]([O-])c1cccnc1C1OCCO1`, the survivor count (dose: 200.0 mg/kg/injection, schedule: Q01DX009 (ip), vehicle: saline + Tween-80 + alcohol) is recorded as 6 of 6.

With `CC1CN1P(=S)(Oc1ccccc1)N1CC1C` (stereo not drawn), the T/C reads like this: under setting [9], 125 % of control; under setting [10], 135 % of control. Besides, the survivor count was 6 of 6 (dose: 264.0 mg/kg/injection, schedule: Q01DX009 (ip), vehicle: saline with Tween-80); 1 of 6 under setting [10]; 3 of 6 (dose: 600.0 mg/kg/injection, schedule: Q01DX009 (ip), vehicle: saline with Tween-80).

On to `CC(=O)OCC12C(OC(C)=O)CC(C)C3(CC(c4ccoc4)OC3=O)C1CCC(=O)C2(O)CCl` (stereo not drawn), for which, under “dose: 50.0 mg/kg/injection, schedule: Q01DX005 (ip), vehicle: saline + Tween-80 + alcohol”, the survivor count is listed as 6 of 6.

With `CC1(C)C(=O)OC(n2cc(F)c(=O)[nH]c2=O)C1=O` (stereo not drawn), the T/C was 130 % of control (dose: 90.0 mg/kg/injection, schedule: Q04DX002 (ip), vehicle: saline with Tween-80); 125 % of control (dose: 180.0 mg/kg/injection, schedule: Q04DX002 (ip), vehicle: distilled water + Tween-80); 139 % of control (dose: 180.0 mg/kg/injection, schedule: Q04DX002 (ip), vehicle: saline with Tween-80).

For the compound `CC(C)(C)P(c1ccccc1)C(C)(C)C`, the survivor count reads like this: (dose: 200.0 mg/kg/injection, schedule: Q04DX002 (ip), vehicle: saline with Tween-80) 5 of 6; (dose: 400.0 mg/kg/injection, schedule: Q04DX002 (ip), vehicle: saline with Tween-80) 0 of 6.

`C1COCCOCCOCCOCCO1.[Br][Sn]([Br])([Br])[Br]`: the survivor count is, setting by setting: (dose: 60.0 mg/kg/injection, schedule: Q01DX005 (ip), vehicle: Klucel (hydroxypropylcellulose) (HPC)) 6 of 6; (dose: 120.0 mg/kg/injection, schedule: Q01DX005 (ip), vehicle: Klucel (hydroxypropylcellulose) (HPC)) 6 of 6; (dose: 240.0 mg/kg/injection, schedule: Q01DX005 (ip), vehicle: Klucel (hydroxypropylcellulose) (HPC)) 4 of 6.

`Nc1c(Cl)c(Cl)nc(C(=O)O)c1Cl`: the survivor count (dose: 400.0 mg/kg/injection, schedule: Q01DX009 (ip), vehicle: Klucel (hydroxypropylcellulose) (HPC)) is 2 of 6.

With `CCC[CH2][Sn]([CH2]CCC)([O]S(=O)c1ccccc1)[O]S(=O)c1ccccc1` (stereo not drawn), the T/C under setting [11] is 130 % of control. The survivor count is, setting by setting: under setting [11], 4 of 6; (dose: 25.0 mg/kg/injection, schedule: Q01DX001 (ip), vehicle: saline with Tween-80) 0 of 6 and 3 of 6; (dose: 50.0 mg/kg/injection, schedule: Q01DX001 (ip), vehicle: saline with Tween-80) 0 of 6.
